Measurements taken from patent US20160046678A1 (ZYNGENIA, published 2016).
Results are given in words; binding and its absence hold for the method and conditions named. Some results given as binding are weak or reduced against the parent protein; the word gives no strength.

Sequences of proteins named here, by UniProt entry; tags and fusion partners are left off. Residues count along the entry.
UniProt P05231, residues 30-212: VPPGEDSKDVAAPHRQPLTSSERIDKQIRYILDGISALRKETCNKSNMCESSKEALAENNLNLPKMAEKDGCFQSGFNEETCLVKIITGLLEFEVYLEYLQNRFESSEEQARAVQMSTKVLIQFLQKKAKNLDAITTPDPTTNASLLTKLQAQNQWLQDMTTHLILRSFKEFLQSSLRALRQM

B1: ILB877 (peptide)
peptide: FNEDCMWDPLLMDCAYSPGQGSATGGSAAGGSYSFRCDVEPHQPGCFDLIQG
B2: ILB861 (peptide)
peptide: FNEDCMWDPLLMDCAYSPGQGSATGGSAAGGSYQPGCAQWWDMERGCFITQ

These binders were tested against IL6 (UniProt P05231) (assay: MRD identification, Example 48).

binding, binds:
FNEDCMWDPLLMDCAYSPGQGSATGGSGSTASAAGGGSRVQIIVPEKW [ILB874], FNEDCMWDPLLMDCAYSPGQGSAAGGGSLCERPLHTPWA [ILB867], FNEDCMWDPLLMDCAYSPGQGSAAGGGSYMGQIPAHNI [ILB857], FNEDCMWDPLLMDCAYSPGQGSATGGSAAGGSSAHDCTEESWCWMEVQG [ILB876], FNEDCMWDPLLMDCAYSPGQGSAAGGGSSYWEHGWPWQ [ILB862], FNEDCMWDPLLMDCAYSPGQGSAAGGGSINALGVAVQH [ILB865], FNEDCMWDPLLMDCAYSPAGGGSQPWRHNMQKI [ILB869], FNEDCMWDPLLMDCAYSPGQGSAAGGGSHYLWQEKTYK [ILB872], FNEDCMWDPLLMDCAYSPGQGSATGGSGSTASAAGGGSDCGANHEHCS [ILB873], FNEDCMWDPLLMDCAYSPGQGSAAGGGSLMYMWEPRTQ [ILB878], B1, FNEDCMWDPLLMDCAYSPGQGSAAGGGSPDWITWQPAW [ILB860], FNEDCMWDPLLMDCAYSPGQGSAAGGGSPWAKNRHEAV [ILB868], FNEDCMWDPLLMDCAYSPGQGSAAGGGSEHHWEHPTNF [ILB875], FNEDCMWDPLLMDCAYSPGQGSAAGGGSLNFGSYSTPH [ILB871], FNEDCMWDPLLMDCAYSPAGGGSDEFQFGSEMM [ILB864], FNEDCMWDPLLMDCAYSPGQGSATGGSAAGGGSKCWSFSGNRPCP [ILB858], B2, FNEDCMWDPLLMDCAYSPGQGSAAGGGSQWQWKIHPAE [ILB866], FNEDCMWDPLLMDCAYSPAGGSIRGLSCWPQDCGLEEL [ILB870], FNEDCMWDPLLMDCAYSPGQGSAAGGGSWPSPPWKQMV [ILB863]
